18 molecules from article PMC10163288 can be followed below.

B1: il2ra_site1_3nfp_normal_mot_HHH_b2_00286_000000273_0001_43_57_H_._HHH_b2_04458_af2_0001_0000200012_0000001_0 (protein)
chain: SSSSDEHELSRLLLELFKAIRNNDEEKVEELLEEVRRLIEELGDRVARLLLEQLEEQLRLSSSSS
B2: il2ra_site2_2erj_normal_mot_af86707857d369f3e1d85dcabc5f9321_0001_000000201_0001_14_29_H_._HHH_b1_07617_0001_0001000035_0000001_1_af2pred_0001_af2pred (protein)
chain: SSSSDEEEQIERLLREARELLEEGDPERAREVVWEAAQLAAESDNEELLKEILELLREIHGSSSS
B3: il2ra_site1_1z92_normal_mot_HHH_b1_06519_000000232_0001_23_40_H_._HHH_b1_01718_0001_0000100003_0000001_0 (protein)
chain: SSSSDERARELVEFLLRDARLLAEHGNRRAIEWIFELVRALLRAIGDPEVEEILEEIEELGSSSS
B4: il2ra_site1_1z92_normal_mot_HHH_b2_00494_000000030_0001_41_54_H_._HHH_b2_03017_af2_0001_0000100004_0000001_1 (protein)
chain: SSSSSSDKTEEVQHLFHEAARIRDKEEARQVLEEALELAREAGNEELAKDIEQYLEFLSSSSSSS
B5: il2ra_site2_3nfp_normal_mot_HHH_b1_05392_000000081_0001_38_55_H_._HHH_b2_06351_af2_0001_0000100004_0000001_0 (protein)
chain: SSSSSELEELLREAEELLEEGDPFEAAQVLLKAHEIALERNDEEAIRIIAEVYEELVKLYNSSSS
B6: il2ra_site1_1z92_sap_12_mot_HHH_b1_02460_000000277_0001_1_17_H_._HHH_b1_04024_af2_0001_0000400020_0000001_0_0001_af2pred_0001_af2pred_1_swapped (protein)
chain: PEELAREARELLEKGNPEEAEKVLRELAREQGSEEAFKRDLEKAEEFLGDPELALKALIRALATF
B7: il2ra_site2_3nfp_sap_14_mot_HHH_b1_07674_000000021_0001_42_55_H_._HHH_b2_04277_af2_0001_0000200006_0000001_0_0001 (protein)
chain: SSSSDEIEELLNRIFELLQQGDLEEAEELIEEVRRLAEELGDERLLRAVQLLTAALKLRASSSSS
B8: il2ra_site2_3nfp_normal_mot_HHH_b2_04451_000000238_0001_21_37_H_._HHH_b1_07051_af2_0001_0000200015_0000001_0 (protein)
chain: SSSSEEEEVRELLEEARELLEEGDKYEALELVAEASELASKKNNEELARLILELFEEIQRLSSSS
B9: il2ra_site1_1z92_normal_mot_HHH_b1_00368_000000203_0001_23_39_H_._HHH_b1_03388_af2_0001_0000300049_0000001_0_af2pred_0001_af2pred_1 (protein)
chain: SSSSDEKLEHNARIVVEMLVEIARLSEEDQEELEELAKELVERGVDLRELLRILNELALELSSSS
B10: il2ra_site2_3nfp_sap_26_mot_HHH_b1_04180_000000024_0001_19_35_H_._HHH_b2_05417_0001_0001100114_0000001_0_0001_af2pred_0001_1_af2pred_swapped (protein)
chain: SSSSSDEEEEEVERLLEEAKEIEDKHELFAVLLLAYQVAEEAGDEELRRRVEELARELLSSSSSS
B11: il2ra_site1_1z92_sap_17_mot_HHH_b1_00368_000000203_0001_23_39_H_._HHH_b2_04234_0001_0000100010_0000001_0_0001_af2pred_0001_af2pred_1 (protein)
chain: SSSSDEEEAERLYHLAAEALERRDEELLRELLELVEELLEKTGDPRIEKLLKLIEEYLEAHSSSS
B12: il2ra_site1_2b5i_sap_19_mot_HHH_b1_07515_af2_000000276_0001_42_54_H_._HHH_b1_04581_0001_0000200012_0000001_0_0001_af2pred_dldesign_0_af2pred (protein)
chain: SSSSDPKAEIKKLLEEAKKLKEEGKKREALETLEEAYKLAAEAEDEELYDEVEELAKELLSSSSS
B13: il2ra_site1_3nfp_normal_mot_HHH_b1_02167_af2_000000151_0001_18_34_H_._HHH_b2_02051_0001_0000200007_0000001_0 (protein)
chain: SSSSDAEELIEEYERELKELLKEGDTQRAARVLEEAIRLATELDNPELAQRLYELARELIKSSSS
B14: il2ra_site1_1z92_normal_mot_01209686ea234b34325f918445e6eade_0001_af2_000000144_0001_18_33_H_._966a9f62293634969225d85b517b1661_0001_1_0001_0000200019_0000001_0 … (protein)
chain: SVEEQLEELLKRNEEEAKELAIELAARIADAPPEEIRKSLELLERLTGDPRHAVRNLIIFARNLE
B15: il2ra_site1_3nfp_sap_20_mot_922575b2e9738a49cb663a995786872c_0001_af2_000000130_0001_1_15_H_._HHH_b1_02605_0001_0000400030_0000001_0_0001_af2pred_0001_af2pred_1 … (protein)
chain: SSSSSEAEEIVQELLERVEELLRKGNPEEAERLFEEAMKVALKRNDKEALELVKRWVREASSSSS
B16: il2ra_site1_3nfp_normal_mot_HHH_b2_06110_000000263_0001_43_57_H_._HHH_b1_04304_af2_0001_0000100002_0000001_0_af2pred_0001_af2pred (protein)
chain: SSSSSDLAREFERIAREVQRLLKEGDQERAEELIEELEEIAEKANDEAAKLFVERLKKKASSSSS
B17: il2ra_site1_3nfp_sap_23_mot_0eddeacbb14b769e73e254714f31e2f9_0001_af2_000000052_0001_37_51_H_._aceb0566c4959a1d3b0eec5718b8dc8a_0001_0002_0000200010_0000001_0_0 … (protein)
chain: SSSSSSSSERFFEDAERAAELEGDEETLEELRELRERFEKEGDSRYAQRVYKLLRELISSSSSSS
B18: il2ra_site2_3nfp_sap_14_mot_HHH_b1_03873_000000295_0001_37_55_H_._HHH_b1_02139_0001_0000600022_0000001_0_0001 (protein)
chain: SSSSSDEHHEVWELSHEAFELARKGNPEEAKEVLEEALEIAERANDRVAERAVREALEALSSSSS

Some of the results follow. Some results are limits rather than exact numbers.

In this assay the target is il2ra, P01589. The experiment in a line: yeast display titration.
Turning to B1, the apparent Kd (in general, a dissociation constant that holds for the conditions of the assay) was “inactive: no binding seen”.

For B2, the “apparent Kd” value is “inactive: no binding seen”.

For B3, the “apparent Kd” value was “inactive: no binding seen”.

On to B4, for which the “apparent Kd” value was “inactive: no binding seen”.

As to B5, the “apparent Kd” value was “inactive: no binding seen”.

Take B6: the apparent Kd was inactive: > 0.949 µM.

Turning to B7, the “apparent Kd” value is “inactive: no binding seen”.

Turning to B8, the “apparent Kd” value was “inactive: no binding seen”.

As to B9, the “apparent Kd” value is “inactive: no binding seen”.

Turning to B10, the “apparent Kd” value is “inactive: no binding seen”.

With B11, the “apparent Kd” value was “inactive: no binding seen”.

In the case of B12, the “apparent Kd” value was “inactive: no binding seen”.

Turning to B13, the “apparent Kd” value is “inactive: no binding seen”.

Regarding B14, the “apparent Kd” value is “inactive: no binding seen”.

Regarding B15, the “apparent Kd” value was “inactive: no binding seen”.

Regarding B16, the “apparent Kd” value was “inactive: no binding seen”.

For the molecule B17, the “apparent Kd” value was “inactive: no binding seen”.

Take B18: the “apparent Kd” value is “inactive: no binding seen”.
